Laboratory results as given in PMC6010098, “Synthesis, antitumour and antioxidant activities of novel α,β-unsaturated ketones and related heterocyclic analogues: EGFR inhibition and molecular modelling study” (Journal of Enzyme Inhibition and Medicinal Chemistry, 2018).

Assay: ABTS radical cation scavenging (antioxidant) assay
Settings: ABTS solution at 734 nm after 20 µl of 1 mg/ml test sample (L-ascorbic acid 2 mM); control of ABTS 0.512

Row | Structure (SMILES) | Absorbance
1 | CC(=O)C=Cc1ccc(OC2CCCC2)cc1 [4a, 4-(4-(Cyclopentyloxy)phenyl)but-3-en-2-one] | 0.245
2 | Cc1ccc(C(=O)C=Cc2ccc(OC3CCCC3)cc2)cc1 [4b, 3-(4-(Cyclopentyloxy)phenyl)-1-(4-methylphenyl)prop-2-en-1-one] | 0.243
3 | O=C1CCCC1=Cc1ccc(OC2CCCC2)cc1 [5a, 2-(4-(Cyclopentyloxy)benzylidene)cyclopentanone] | 0.281
4 | O=C1CCCCC1=Cc1ccc(OC2CCCC2)cc1 [5b, 2-(4-(Cyclopentyloxy)benzylidene)cyclohexanone] | 0.249
5 | O=C1CCCCCC1=Cc1ccc(OC2CCCC2)cc1 [5c, 2-(4-(Cyclopentyloxy)benzylidene)cycloheptanone] | 0.251
6 | CN1CCC(=O)C(=Cc2ccc(OC3CCCC3)cc2)C1 [6a, 3-(4-(Cyclopentyloxy)benzylidene)-1-methylpiperidin-4-one] | 0.234
7 | CCN1CCC(=O)C(=Cc2ccc(OC3CCCC3)cc2)C1 [6b, 3-(4-(Cyclopentyloxy)benzylidene)-1-ethylpiperidin-4-one] | 0.229
8 | Cc1ccc(C2=NNC(c3ccc(OC4CCCC4)cc3)C2)cc1 (stereo not shown) [8a, 5-(4-(Cyclopentyloxy)phenyl)-3-(4-methylphenyl)-4,5-dihydro-1H-pyrazole] | 0.240
9 | Cc1ccc(C2=NN(c3ccccc3)C(c3ccc(OC4CCCC4)cc3)C2)cc1 (stereo not shown) [8b, 5-(4-(Cyclopentyloxy)phenyl)-1-phenyl-3-(4-methylphenyl)-4,5-dihydro-1H-pyrazole] | 0.058
10 | O=C(O)c1cc(C=Cc2ccc(OC3CCCC3)cc2)nc2ccc(Br)cc12 [12a, 6-Bromo-2-(4-(cyclopentyloxy)styryl)quinoline-4-carboxylicacid] | 0.275
11 | O=C(O)c1cc(C=Cc2ccc(OC3CCCC3)cc2)nc2ccc(F)cc12 [12b, 2-(4-(Cyclopentyloxy)styryl)-6-fluoroquinoline-4-carboxylicacid] | 0.256
12 | O=C1O[C@H]([C@@H](O)CO)C(O)=C1O [Ascorbic acid, L-Ascorbic acid, reference compound] | 0.051
13 | CCOC(=O)C1=C(C)OC(N)=C(C#N)C1c1ccc(OC2CCCC2)cc1 (stereo not shown) [compound 7, ethyl 6-amino-5-cyano-4-(4-(cyclopentyloxy)phenyl)-2-methyl-4H-pyran-3-carboxylate] | 0.124
14 | Cc1ccc(C2=NOC(c3ccc(OC4CCCC4)cc3)C2)cc1 (stereo not shown) [compound 9, 5-(4-(cyclopentyloxy)phenyl)-3-(4-methylphenyl)-4,5-dihydroisoxazole] | 0.204
15 | Cc1ccc(-c2cc(-c3ccc(OC4CCCC4)cc3)c(C#N)c(=O)[nH]2)cc1 [compound 10, 4-(4-(cyclopentyloxy)phenyl)-2-oxo-6-(4-methylphenyl)-1,2-dihydropyridine-3-carbonitrile] | 0.270
16 | Cc1ccc(-c2cc(-c3ccc(OC4CCCC4)cc3)c(C#N)c(N)n2)cc1 [compound 11, 2-amino-4-(4-(cyclopentyloxy)phenyl)-6-(4-methylphenyl)nicotinonitrile] | 0.279
